We go through one molecule from paper doi:10.1101/2024.09.10.612170.

For the experiment, the target named is T1, FLAG-tagged EB1 (Drosophila) (UniProt Q9XZ57).
T1 sequence: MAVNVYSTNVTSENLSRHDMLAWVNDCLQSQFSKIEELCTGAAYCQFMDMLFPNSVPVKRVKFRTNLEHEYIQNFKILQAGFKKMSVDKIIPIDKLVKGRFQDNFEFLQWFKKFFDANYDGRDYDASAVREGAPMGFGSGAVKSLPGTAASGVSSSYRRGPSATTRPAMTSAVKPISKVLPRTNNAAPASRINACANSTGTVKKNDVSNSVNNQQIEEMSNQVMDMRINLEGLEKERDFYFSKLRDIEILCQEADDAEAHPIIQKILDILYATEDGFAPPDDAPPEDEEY
Briefly: co-IP.

Results are given in words; binding and its absence hold for the method and conditions named. Binding seen in cells or lysates may run through a third protein. Some binding calls cover weakened binding; strength is not graded here. Where a sequence is shown, tags or fusion partners need not be part of it.

B1: KLP68D:YFP, full length (protein, UniProt P46867 1-784)
chain: MSAKSRRPGTGSSQTPNECVQVVVRCRPMSNRERSERSPEVVNVYPNRGVVELQNVVDGNKEQRKVFTYDAAYDASATQTTLYHEVVFPLVSSVLEGFNGCIFAYGQTGTGKTFTMEGVRGNDELMGIIPRTFEQIWLHINRTENFQFLVDVSYLEIYMEELRDLLKPNSKHLEVRERGSGVYVPNLHAINCKSVEDMIKVMQVGNKNRTVGFTNMNEHSSRSHAIFMIKIEMCDTETNTIKVGKLNLIDLAGSERQSKTGASAERLKEASKINLALSSLGNVISALAESSPHVPYRDSKLTRLLQDSLGGNSKTIMIANIGPSNYNYNETLTTLRYASRAKSIQNQPIKNEDPQDAKLKEYQEEIERLKRLIGPQQQQRSEKQVTAKKQRVKKPKKETVTKEMSDSLQVSTIEQPVEDDSDPEGAESESDKENEAEVAKSNEELERERVENSKLAAKLAELEGQLVRGGKNLLDTYSERQIELEKKLVEIAERKKREIEIQQQLELQEETTLEIRERNVSLEQEVELKKRKLSKCYAKYLALQQELNDCKSDHNQDLRELEMAQNELVKELKRQLLIIDNFVPIEVKQRLYTQAKYDEEQEEWKFSSMSLPTPPGGDGKFSSKRPVSHPQRRRPTSEYALQEAKSNSPSSLRFKSENIVNYELEMPCRTTQEYRTPKVSASLQAVLAQAMQTGGDDIDIVDSHTNSLRSRLENIINANANGGAGPGAGVAVGSSIPNVRNIKSSRGLPSAASNLDSNRRPPTGRLPAKKPASAYPKARGLVNK
In the case of B1, the binding entry was “binds”.
